In paper PMC6356155 one finds binding data, which are given here for one substance.

Protein sequences, listed by entry. Tags and fused reporters are not part of them.
UniProt Q8BUN5: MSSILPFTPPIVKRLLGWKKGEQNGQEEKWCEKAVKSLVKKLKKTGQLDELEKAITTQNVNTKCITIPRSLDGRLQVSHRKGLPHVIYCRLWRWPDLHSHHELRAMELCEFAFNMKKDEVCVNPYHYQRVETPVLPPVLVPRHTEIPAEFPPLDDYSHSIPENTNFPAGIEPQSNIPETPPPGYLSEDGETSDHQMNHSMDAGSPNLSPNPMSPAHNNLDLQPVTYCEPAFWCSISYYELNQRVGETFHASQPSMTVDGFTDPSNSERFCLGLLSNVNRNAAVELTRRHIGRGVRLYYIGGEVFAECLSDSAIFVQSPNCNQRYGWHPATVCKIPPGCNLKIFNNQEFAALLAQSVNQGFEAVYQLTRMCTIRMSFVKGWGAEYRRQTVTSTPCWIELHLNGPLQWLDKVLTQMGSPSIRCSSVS
UniProt P28033: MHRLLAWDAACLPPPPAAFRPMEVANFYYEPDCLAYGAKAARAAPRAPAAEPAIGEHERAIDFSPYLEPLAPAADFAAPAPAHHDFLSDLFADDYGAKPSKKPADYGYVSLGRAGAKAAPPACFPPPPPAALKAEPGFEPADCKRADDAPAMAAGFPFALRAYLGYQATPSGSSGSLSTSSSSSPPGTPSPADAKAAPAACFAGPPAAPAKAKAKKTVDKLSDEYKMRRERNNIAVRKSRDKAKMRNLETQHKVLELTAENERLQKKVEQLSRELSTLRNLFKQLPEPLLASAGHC

These are yes or no findings as the source states them, for the method shown. In cells and extracts the contact can be indirect. Some binding calls cover weakened binding; strength is not graded here.

This experiment has as its target Smad3 (mouse (endogenous in GE1)) (UniProt Q8BUN5). The experiment is described as follows: co-IP; nuclear proteins (15 μg) of GE1 cells, untreated or treated with PgLPS (0.1 μg/mL, 12 and 24 h); precleared with normal rabbit IgG and protein A/G agarose; precipitated with anti-Smad3 or IgG in NP-40 solution (0.5% NP-40, 10 mM Tris pH 7.5, 0.5 M NaCl), 4 °C; blotted with anti-YY1 or anti-C/EBPβ.

Regarding “CCAAT/enhancer-binding protein β (from UniProt P28033 1-296)”, the binding result is “binds”.
